Measurements reported in PubChem BioAssay AID1224828 (NIAID, 2016).
Here is a random part of about 17,000 deposited reagents. In the full data, 762 (4.5%) were called active. 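Active calls include both raised and lowered p65 entry, mostly lowered; wells with fewer than 50 cells lack a z-score.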 The raw values are shown without normalisation. Reagent sequences are not shown.

- Aim: 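Knock-downs that increase or decrease LPS-induced p65 nuclear translocation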 (primary screen)
- Cell system: mouse RAW264.7 G9 macrophage reporter cells (GFP-p65, Tnf promoter-mCherry)
- Knock-down reagent: siRNA pool against mouse genes, 100 nM
- Time to read-out: 2 days siRNA transfection, then 40 min LPS before fixation
- Treatment: LPS (Salmonella minnesota R595) at 10 ng/ml
- Read-out: 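Microscopy ratio of nuclear to perinuclear-ring GFP-p65 signal, scaled to the plate median; gene score is the average of two replicate robust z-scores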
- Scale: p65 translocation robust z-score: higher = more nuclear NF-kappaB p65 after LPS than the plate median; nuclear/cytoplasmic p65 ratio: higher = more nuclear NF-kappaB p65
- Active means: 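Active if robust z is above 3.3 (negative regulators) or below -1.56, the Tlr4 control median (positive regulators); activity score 50 or more; control wells not called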
- Meaning of the calls: active = hit (p65 shift raised or lowered); inactive = no clear change

Gene	p65 translocation robust z-score	nuclear/cytoplasmic p65 ratio, rep 1	nuclear/cytoplasmic p65 ratio, rep 2	low cell count flag	activity call
Pi4k2a (phosphatidylinositol 4-kinase type 2 alpha)	-1.02	1.64	1.25	enough cells to score	inactive
Adh4 (alcohol dehydrogenase 4 (class II), pi polypeptide)	0.96	1.87	1.66	enough cells to score	inactive
Neurog3 (neurogenin 3)	0.83	1.86	1.77	enough cells to score	inactive
Plac8 (placenta-specific 8)		1.56	1.42	fewer than 50 cells per well; well left out of scoring	inactive
Tox4 (TOX high mobility group box family member 4)	2.03	1.62	1.57	enough cells to score	inactive
Tcf7 (transcription factor 7, T cell specific)	0.76	1.56	1.69	enough cells to score	inactive
Samt3 (spermatogenesis associated multipass transmembrane protein 3)	-0.61	1.35	1.34	enough cells to score	inactive
Ccdc180 (coiled-coil domain containing 180)	1.66	1.66	1.6	enough cells to score	inactive
Rbms2 (RNA binding motif, single stranded interacting protein 2)	0.82	1.66	1.61	enough cells to score	inactive
Pcdh18 (protocadherin 18)	-0.85	1.43	1.22	enough cells to score	inactive
Ruvbl1 (RuvB-like AAA ATPase 1)	-1.18	1.39	1.31	enough cells to score	inactive
Iqcg (IQ motif containing G)		1.18	1.08	fewer than 50 cells per well; well left out of scoring	inactive
Med24 (mediator complex subunit 24)	-0.33	1.33	1.61	enough cells to score	inactive
Ckap2l (cytoskeleton associated protein 2-like)		1.24	0.861	fewer than 50 cells per well; well left out of scoring	inactive
Sec24a (SEC24 homolog A, COPII coat complex component)	-0.35	1.47	1.53	enough cells to score	inactive
Bcdin3d (BCDIN3 domain containing)	1.06	1.42	1.4	enough cells to score	inactive
Kap (kidney androgen regulated protein)	-0.16	1.57	1.37	enough cells to score	inactive
Htr1b (5-hydroxytryptamine (serotonin) receptor 1B)	-0.64	1.44	1.47	enough cells to score	inactive
Tsen15 (tRNA splicing endonuclease subunit 15)	-0.73	1.32	1.31	enough cells to score	inactive
Cyp46a1 (cytochrome P450, family 46, subfamily a, polypeptide 1)	-0.33	1.53	1.72	enough cells to score	inactive
Klhl17 (kelch-like 17)	1.35	1.61	1.57	enough cells to score	inactive
Epc1 (enhancer of polycomb homolog 1)	-0.75	1.39	1.26	enough cells to score	inactive
Slc25a39		1.04	1.34	fewer than 50 cells per well; well left out of scoring	inactive
Hrh3 (histamine receptor H3)	-1.27	1.38	1.34	enough cells to score	inactive

Copied from the list.
Hrh3 (histamine receptor H3), nuclear/cytoplasmic p65 ratio, rep 2: 1.34
Slc25a39, low cell count flag: fewer than 50 cells per well; well left out of scoring
